# Results as given in paper PMC7819943, “Rice protein-binding microarrays: a tool to detect cis-acting elements near promoter regions in rice”.
# Chains of the proteins cited; added tags and fusions are not shown.
# UniProt Q0JBA9, entry or part of it: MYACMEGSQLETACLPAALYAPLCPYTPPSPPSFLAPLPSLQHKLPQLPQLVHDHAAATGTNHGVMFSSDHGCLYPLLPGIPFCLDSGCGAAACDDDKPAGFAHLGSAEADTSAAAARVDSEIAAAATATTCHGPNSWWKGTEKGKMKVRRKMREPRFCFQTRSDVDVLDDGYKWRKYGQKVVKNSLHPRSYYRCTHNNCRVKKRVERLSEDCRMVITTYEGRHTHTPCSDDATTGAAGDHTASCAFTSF
# The other results are listed elsewhere or left out.
# Target: OsWRKY34 (Oryza sativa, UniProt Q0JBA9 1-250)
# Experiment: protein-binding microarray (RPBM); PBS, 2% BSA, 51.3 ng/ul salmon testes DNA, 50 uM zinc acetate, 200 nM TF, 25 C, 1 h; high values mean tight binding
# Settings: protein: recombinant; tags: N-terminal polyhistidine and DsRed monomer fusion (pET32a); label: CyDye5-dUTP incorporated in the synthesized complementary strand; 3' TTTTT single-stranded linker to array surface; dsDNA, one strand shown
# Method in brief: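 Transcription factors, each fused N-terminally to a polyhistidine tag and DsRed, were expressed in E. coli BL21-CodonPlus and purified on Ni–NTA. A custom Agilent array was made double-stranded by primer extension with Cy5-dUTP and blocked with 2% BSA. It was incubated with 200 nM protein in PBS, 2% BSA, salmon testes DNA and 50 µM zinc acetate at 25 °C for 1 h, then washed. The binding signal is per-feature fluorescence intensity (arbitrary units) read on an Axon 4000B scanner.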
row,Sequence,binding signal
1,TGTCGCGTGTTCTCTAAACGCACTGTGTCGTGCTTCATCCCGGAGTCACCTAGTGCAG,11600 fluorescence intensity (a.u.)
2,TTATCTTTTCGCTTATACTTATTAGTCAAATTTTAAAATTCGGAGTCACCTAGTGCAG,10600 fluorescence intensity (a.u.)
3,CTTTACCTTTTTTAGTTTGCCTTTGTTCTTTGCGGTGTTTCGGAGTCACCTAGTGCAG,9960 fluorescence intensity (a.u.)
4,ACATTTGTACACCTCAGCGGATCGCACAGCCACCCAACCACGGAGTCACCTAGTGCAG,9140 fluorescence intensity (a.u.)
5,GACCTATTCGTCGTGACTGAAACACCACGGCACAGACAACCGGAGTCACCTAGTGCAG,8060 fluorescence intensity (a.u.)
6,TTATACTATCTCGTTTCTCGCACACATGTATGGTGTGTTTCGGAGTCACCTAGTGCAG,9630 fluorescence intensity (a.u.)
7,GACACCGACACTTATACTGTAGATCCACCCCTGATGACATCGGAGTCACCTAGTGCAG,10600 fluorescence intensity (a.u.)
8,TTTCTTATAATTCAGCTGCAATTTTTTTTTAAAAAAACAACGGAGTCACCTAGTGCAG,9480 fluorescence intensity (a.u.)
9,CCCTGCATCCCGCATTTCCTCCACTGCATACCAACACCAACGGAGTCACCTAGTGCAG,9390 fluorescence intensity (a.u.)
10,CTCTCCCATATACAAACCGTCATCTTTCGTGCACATTTGGCGGAGTCACCTAGTGCAG,9340 fluorescence intensity (a.u.)
11,GCATGCCCACGGTCATATATGTCTATTTACCTCTCAGATTCGGAGTCACCTAGTGCAG,9490 fluorescence intensity (a.u.)
12,TCTCTCCCATGTCCGGCCATGGCCGCCACCACCCGATCTCCGGAGTCACCTAGTGCAG,8120 fluorescence intensity (a.u.)
13,TATATAAATACTACCTCCGTTTCAGGTTATAAGACTTTCTCGGAGTCACCTAGTGCAG,8700 fluorescence intensity (a.u.)
14,CGCCCACTGTACGTACCGGCATTACAGCTTAGACAACGTTCGGAGTCACCTAGTGCAG,8460 fluorescence intensity (a.u.)
15,GTCATTGGTGGTTTATATTGTTTGGCTTTTTTCCGGATTACGGAGTCACCTAGTGCAG,18500 fluorescence intensity (a.u.)
16,CTTCCGCCTCCACCGCCGCCTCGCCGCTCCCATGGCCAGGCGGAGTCACCTAGTGCAG,8130 fluorescence intensity (a.u.)
17,CACTCCTCATCTCCAATCACACCACACTGGTAAGAATCAACGGAGTCACCTAGTGCAG,8230 fluorescence intensity (a.u.)
18,TTGGAGGACCAATTTGACCATTCACCCTTTTATAATACTGCGGAGTCACCTAGTGCAG,8230 fluorescence intensity (a.u.)
19,GGCCTCCCTGCTGCCTGATCTCCATTGTTTTCATAAGTCCCGGAGTCACCTAGTGCAG,8410 fluorescence intensity (a.u.)
20,CTCTCTCTCTCTCTCTCCTTGTGGACTCGCAGTCTCGCTCCGGAGTCACCTAGTGCAG,11100 fluorescence intensity (a.u.)
21,CTCTCGCTCATCCCAATCCCCATCACGAGCGCCCCAGAATCGGAGTCACCTAGTGCAG,11600 fluorescence intensity (a.u.)

row,Sequence,binding signal
1,CCTTGTCTTTTGTCTGCTTGATATTGTACTACGTAGATCCCGGAGTCACCTAGTGCAG,9830 fluorescence intensity (a.u.)
2,ACCCTGCTCGGTTTCTTGATTCTCTCTCTGCCTGTCGTCGCGGAGTCACCTAGTGCAG,9680 fluorescence intensity (a.u.)
3,GTCCTGCCGAGATTTAGTCAACTACTATTAGGTATGTGGTCGGAGTCACCTAGTGCAG,9890 fluorescence intensity (a.u.)
4,TTGGTTTGTTCCTCTTTGTTTTTTGGGTAACCTTTGAGCCCGGAGTCACCTAGTGCAG,8080 fluorescence intensity (a.u.)
5,TTTCTCCCGCATGGATCCTGCACGAGCATTTTTTTTATTTCGGAGTCACCTAGTGCAG,9480 fluorescence intensity (a.u.)
6,GTCCGCTTTTCTCTTCCTCGTCTTCTTCTCCGGCGAGCTCCGGAGTCACCTAGTGCAG,10600 fluorescence intensity (a.u.)
7,ACCCAATTATTAACCTTTTGCCCTTAACTGCATCTCCCGCCGGAGTCACCTAGTGCAG,9850 fluorescence intensity (a.u.)
8,ATGCCATTGACCTCGAAACCATTGCACAACCTCATCGTCTCGGAGTCACCTAGTGCAG,8950 fluorescence intensity (a.u.)
9,TACCAATGGAGTAAACAACAGCCAATATTGCATCTGCTTTCGGAGTCACCTAGTGCAG,8430 fluorescence intensity (a.u.)
10,ATCTGATTTTTATTTTCAGCATATGCATCGTTTTCATGTTCGGAGTCACCTAGTGCAG,10200 fluorescence intensity (a.u.)
11,ACCATTTTTGTCAAGCCATTACAGCGCCTGATGTCCAAGTCGGAGTCACCTAGTGCAG,10800 fluorescence intensity (a.u.)
12,CTGCCGCCTCTAATTGACAAGCATTCAACCATATATATGTCGGAGTCACCTAGTGCAG,9450 fluorescence intensity (a.u.)
13,CGTTCTGCCTCGCCTACATGATCTGTGAGCCAGCTTAGCCCGGAGTCACCTAGTGCAG,9000 fluorescence intensity (a.u.)
14,TAAGACAAATGGTCAAACGTTGAACACGGATATCCATGGCCGGAGTCACCTAGTGCAG,8030 fluorescence intensity (a.u.)
15,AATTTCCCCATCGATCATTTTATTTTTTTTCTTATAAATACGGAGTCACCTAGTGCAG,10700 fluorescence intensity (a.u.)
16,AAGCACTCACTCTCTCTTGCTAGCTCTCTCCACCACAAGACGGAGTCACCTAGTGCAG,9100 fluorescence intensity (a.u.)
17,TTGTTGGCTCAATATAGTTATCCTCCTTTGACCCAGTTAACGGAGTCACCTAGTGCAG,9120 fluorescence intensity (a.u.)
18,TCCAACCTTGACTGTGAACCAAACACACCCTAAGCCTAAACGGAGTCACCTAGTGCAG,8280 fluorescence intensity (a.u.)
19,ACTAGCATTAATTAGCCACTCCTTCATTAAACTATCTTATCGGAGTCACCTAGTGCAG,9580 fluorescence intensity (a.u.)
20,TAGCGGTCGATAACCTCTCTCTCACCCGTACTACCCACCACGGAGTCACCTAGTGCAG,8390 fluorescence intensity (a.u.)
21,ATATTGTACTACTAACCTCTTTTGCACACAATTTACCAAACGGAGTCACCTAGTGCAG,9400 fluorescence intensity (a.u.)

# Quoted from the results shown for reference:
row,Sequence,binding signal
10,ATCTGATTTTTATTTTCAGCATATGCATCGTTTTCATGTTCGGAGTCACCTAGTGCAG,10200 fluorescence intensity (a.u.)
11,ACCATTTTTGTCAAGCCATTACAGCGCCTGATGTCCAAGTCGGAGTCACCTAGTGCAG,10800 fluorescence intensity (a.u.)

# Continuation:

row,Sequence,binding signal
1,TGCTCTTAGGCTAACATAAACCAATGTTTTCTTCTCGTTCCGGAGTCACCTAGTGCAG,8210 fluorescence intensity (a.u.)
2,AGGGAGGAGGGGAATTCGTACTCAGTAGTTTCCGGGCTTTCGGAGTCACCTAGTGCAG,8310 fluorescence intensity (a.u.)
3,GTCACGTTTTTGCGGTGTCTCCCAGCCAATTACACATTTTCGGAGTCACCTAGTGCAG,10500 fluorescence intensity (a.u.)
4,GTCAGTTGCCATAAATTGGCCTCGCCGGCCCGAGGCTTTCCGGAGTCACCTAGTGCAG,8400 fluorescence intensity (a.u.)
5,GGGCGGTTCTTCTTCTTCGTCTTCGTCTTGGCGCCGGTCGCGGAGTCACCTAGTGCAG,17200 fluorescence intensity (a.u.)
6,CTCCTCGCCGCCGCCATCGCTGCCCCACCGCCTCCCCACCCGGAGTCACCTAGTGCAG,8060 fluorescence intensity (a.u.)
7,TCTTCGTGCTGACTCTATCGCGCTCTCTCTCTCCCATCTTCGGAGTCACCTAGTGCAG,12500 fluorescence intensity (a.u.)
8,ACACCATTGACACGTTTGCTTATTCAGATTGTGGTTCATGCGGAGTCACCTAGTGCAG,10200 fluorescence intensity (a.u.)
9,GAGACCCTAATCCCGTGTTTCCGTTCTCCACCAGTAGAGACGGAGTCACCTAGTGCAG,8740 fluorescence intensity (a.u.)
10,ACCACACCACATATCATCCCAGACTCCGCCACGGCCGCGCCGGAGTCACCTAGTGCAG,8550 fluorescence intensity (a.u.)
11,GAAATCTCACCCGCTCTCTCTCTCTCGCGCGCGCGCCGCCCGGAGTCACCTAGTGCAG,8630 fluorescence intensity (a.u.)
12,TCAGTAGTCAACCAAATGTAACTAGTCTCTTCTTACCGGACGGAGTCACCTAGTGCAG,8070 fluorescence intensity (a.u.)
13,TTGTTACTACTTTGGGCAGTGTTTAGCTCCTTTAAACTTCCGGAGTCACCTAGTGCAG,9200 fluorescence intensity (a.u.)
14,CCATTCCCACATCGATCGGTCACTGCACTCGCGCTCTCTTCGGAGTCACCTAGTGCAG,16200 fluorescence intensity (a.u.)
15,AAACATATTCTTGAATCTTCGCTTGTGTTTCTACGATATCCGGAGTCACCTAGTGCAG,9090 fluorescence intensity (a.u.)
16,TTCCTCTATACTGCACTGTCGCTCGTAGTCTACTCCACCCCGGAGTCACCTAGTGCAG,8290 fluorescence intensity (a.u.)
17,GGGCTGCTTTCACCTTTTGCTTTCCAACCTCTTCTTGCCACGGAGTCACCTAGTGCAG,13400 fluorescence intensity (a.u.)
18,CCCATCGACCTATCCCTACACGGTTGCACATGCCGATACACGGAGTCACCTAGTGCAG,11900 fluorescence intensity (a.u.)
19,GAGGTGGTATTATTATCCTTAACATTTATTATGGGCCTTTCGGAGTCACCTAGTGCAG,12800 fluorescence intensity (a.u.)
20,GCTTCCGAGCTCGATCTCTCCCAAGCTCAATTCCATTCTCCGGAGTCACCTAGTGCAG,8470 fluorescence intensity (a.u.)
21,AACATTACTTTATACGTGACTTATGCTTTTTATTTTTTTTCGGAGTCACCTAGTGCAG,11400 fluorescence intensity (a.u.)

row,Sequence,binding signal
1,TGTTTTTTTTCCTATTTATCTGTTTTTTTTATTCCTGCGACGGAGTCACCTAGTGCAG,8120 fluorescence intensity (a.u.)
2,ATATTTGACCGTTTGTCTTTTTCAAAAACTTTTGTGAAATCGGAGTCACCTAGTGCAG,9920 fluorescence intensity (a.u.)
3,TCATGTGGACCATCCATTCTTCTCCCCTTTTCTTCACATTCGGAGTCACCTAGTGCAG,9230 fluorescence intensity (a.u.)
4,CCAATTTTCAAATTTATTCTCCGTTTTGCTCTCAAATTTGCGGAGTCACCTAGTGCAG,8370 fluorescence intensity (a.u.)
5,CCCCGCCCGGCTCAGACCTCGCCATCGATCGACCTGCTCGCGGAGTCACCTAGTGCAG,10100 fluorescence intensity (a.u.)
6,TACCACTCATGCTTTCTCTTAGCCTTCATATACTTGTCAACGGAGTCACCTAGTGCAG,13000 fluorescence intensity (a.u.)
7,CTCATCATATTTGGACCTGCACTGGAGCTAAGCAGATCTCCGGAGTCACCTAGTGCAG,9540 fluorescence intensity (a.u.)
8,ATAGGCGAATCCACACCGTCCATTCATCCATCTGAAGCAGCGGAGTCACCTAGTGCAG,9870 fluorescence intensity (a.u.)
9,ACCTCTAACCGCCACTAGTTTTTTATACTCTTCTCTATAGCGGAGTCACCTAGTGCAG,8470 fluorescence intensity (a.u.)
10,TGCTCAATTGCAGAATTGCTCATAATCTCTCTCTTTTTTTCGGAGTCACCTAGTGCAG,9140 fluorescence intensity (a.u.)
11,CCCTTGTTTGGTTTCACATCGAATTCCCTCCAAGTCTCACCGGAGTCACCTAGTGCAG,9580 fluorescence intensity (a.u.)
12,GTTCATTCAGTTTATGCCACTGCACTTCCTATGTCTCATCCGGAGTCACCTAGTGCAG,12000 fluorescence intensity (a.u.)
13,ACCCTAGGTTTCCATGTCCAACGTTTGACCGTCCGTCTTACGGAGTCACCTAGTGCAG,10400 fluorescence intensity (a.u.)
14,CACCTGTAAAACGCCACCTCTTCACCGCTGCCACCACACCCGGAGTCACCTAGTGCAG,9310 fluorescence intensity (a.u.)
15,GTTTTTGCTGAAATCAACCTAACCGATATTTAGCGTTACCCGGAGTCACCTAGTGCAG,8150 fluorescence intensity (a.u.)
16,GCGAGCCAAGTAGCAGCAAATCCTCGTCCACTCATCCAGTCGGAGTCACCTAGTGCAG,8300 fluorescence intensity (a.u.)
17,GCCATCAACACGGCCCACCCAGAAACGGCCGCATCAATCCCGGAGTCACCTAGTGCAG,10100 fluorescence intensity (a.u.)
18,CCTTTTTATTTTATTTTTTTTCTATTTTTTTTCCGCAGCCCGGAGTCACCTAGTGCAG,9000 fluorescence intensity (a.u.)
19,TAACGACCGTCAACATCTATCGAATTGTCGTTTGTATACTCGGAGTCACCTAGTGCAG,9510 fluorescence intensity (a.u.)
20,CCTCATCACCACCACCACGCCAACATCCATCGGCTCGCCGCGGAGTCACCTAGTGCAG,8800 fluorescence intensity (a.u.)
21,CTTCCACGCACTCTCTCGATCGGGTCGCTGCCGCTGATTTCGGAGTCACCTAGTGCAG,10000 fluorescence intensity (a.u.)

# Some of the entries so far, bar-delimited.
row | Sequence | binding signal
2 | ACCCTGCTCGGTTTCTTGATTCTCTCTCTGCCTGTCGTCGCGGAGTCACCTAGTGCAG | 9680 fluorescence intensity (a.u.)
5 | CCCCGCCCGGCTCAGACCTCGCCATCGATCGACCTGCTCGCGGAGTCACCTAGTGCAG | 10100 fluorescence intensity (a.u.)
